# Source: article PMC5552723
# No constants are given. Whether binding was seen depends on the method and setting. Binding calls can cover weak binding; strength is not graded here.
# Biological target: GAL4 DNA-BD-SmAREB1 fusion (Salvia miltiorrhiza)
# Test: two-hybrid; S. cerevisiae AH109 co-transformed with pGADT7 (AD) and pGBKT7 (BD) fusions; serial dilutions spotted on SD/-Trp-Leu and SD/-Leu-Trp-His-Ade, 30°C, 3-5 days; X-β-Gal staining
row,binding,Substance
1,binds,SmSnRK2.6-pGADT7 (from UniProt A0A2U9Q8M1) (enzyme)
2,binds,SmSnRK2.3-pGADT7 (from UniProt A0A2U9Q8L8) (enzyme)
